Here are results for two molecules from publication PMC6251927.

By UniProt entry, the sequences of proteins in these tests, tags left out. Where a name states a change or a piece, a line headed by the entry shows the natural chain unless it says otherwise.
UniProt Q9VUH8: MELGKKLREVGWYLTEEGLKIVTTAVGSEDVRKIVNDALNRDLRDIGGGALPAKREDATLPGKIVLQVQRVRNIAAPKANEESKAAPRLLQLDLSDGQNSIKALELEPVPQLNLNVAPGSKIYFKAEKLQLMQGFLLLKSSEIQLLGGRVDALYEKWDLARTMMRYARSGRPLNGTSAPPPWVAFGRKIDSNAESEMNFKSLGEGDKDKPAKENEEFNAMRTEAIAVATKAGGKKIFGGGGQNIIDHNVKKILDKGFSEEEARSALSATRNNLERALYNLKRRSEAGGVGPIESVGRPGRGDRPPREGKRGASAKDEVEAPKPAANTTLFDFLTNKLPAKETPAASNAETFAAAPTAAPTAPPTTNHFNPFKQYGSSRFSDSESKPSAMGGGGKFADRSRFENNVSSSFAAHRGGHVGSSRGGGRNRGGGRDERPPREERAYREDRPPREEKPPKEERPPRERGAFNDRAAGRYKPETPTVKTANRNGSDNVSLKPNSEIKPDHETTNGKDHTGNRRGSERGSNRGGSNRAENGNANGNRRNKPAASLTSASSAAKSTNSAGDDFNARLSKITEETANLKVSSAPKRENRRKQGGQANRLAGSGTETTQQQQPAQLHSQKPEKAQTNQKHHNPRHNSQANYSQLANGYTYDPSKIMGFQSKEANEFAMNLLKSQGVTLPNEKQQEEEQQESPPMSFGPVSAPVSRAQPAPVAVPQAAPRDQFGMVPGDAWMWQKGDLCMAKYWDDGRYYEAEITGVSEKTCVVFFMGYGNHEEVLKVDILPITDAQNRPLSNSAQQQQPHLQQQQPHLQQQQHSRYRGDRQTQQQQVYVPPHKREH

Results are given in words; binding and its absence hold for the method and conditions named. In cells and extracts the contact can be indirect. Binding calls can cover weak binding; strength is not graded here. For part of these data: Tags and fused reporters may be left off the sequences shown.

Assay [1] deals with T1, HA-tagged VIG (Drosophila) (UniProt Q9V426).
T1 sequence: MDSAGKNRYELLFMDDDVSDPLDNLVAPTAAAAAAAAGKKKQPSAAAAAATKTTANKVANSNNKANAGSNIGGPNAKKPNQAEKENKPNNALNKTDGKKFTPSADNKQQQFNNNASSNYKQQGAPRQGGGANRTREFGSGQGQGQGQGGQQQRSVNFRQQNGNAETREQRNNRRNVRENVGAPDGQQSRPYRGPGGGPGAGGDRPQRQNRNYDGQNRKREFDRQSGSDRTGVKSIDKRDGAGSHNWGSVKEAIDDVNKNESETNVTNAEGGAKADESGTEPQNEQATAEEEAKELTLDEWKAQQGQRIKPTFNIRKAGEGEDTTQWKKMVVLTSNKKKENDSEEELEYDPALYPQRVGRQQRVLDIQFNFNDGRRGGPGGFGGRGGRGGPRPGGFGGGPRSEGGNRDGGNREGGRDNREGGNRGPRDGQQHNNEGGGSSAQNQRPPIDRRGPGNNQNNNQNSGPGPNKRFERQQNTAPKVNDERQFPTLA
The experiment in a line: co-IP; HA antibody IP from S2 cells transfected with HA-tagged p68, VIG or AGO2, immunoblotting (reciprocal IP-Western). On the technique in general: A western blot detects proteins with antibodies after separation by electrophoresis.

Assay [2] concerns the target T2, HA-tagged AGO2 (Drosophila) (UniProt Q9VUQ5).
T2 sequence: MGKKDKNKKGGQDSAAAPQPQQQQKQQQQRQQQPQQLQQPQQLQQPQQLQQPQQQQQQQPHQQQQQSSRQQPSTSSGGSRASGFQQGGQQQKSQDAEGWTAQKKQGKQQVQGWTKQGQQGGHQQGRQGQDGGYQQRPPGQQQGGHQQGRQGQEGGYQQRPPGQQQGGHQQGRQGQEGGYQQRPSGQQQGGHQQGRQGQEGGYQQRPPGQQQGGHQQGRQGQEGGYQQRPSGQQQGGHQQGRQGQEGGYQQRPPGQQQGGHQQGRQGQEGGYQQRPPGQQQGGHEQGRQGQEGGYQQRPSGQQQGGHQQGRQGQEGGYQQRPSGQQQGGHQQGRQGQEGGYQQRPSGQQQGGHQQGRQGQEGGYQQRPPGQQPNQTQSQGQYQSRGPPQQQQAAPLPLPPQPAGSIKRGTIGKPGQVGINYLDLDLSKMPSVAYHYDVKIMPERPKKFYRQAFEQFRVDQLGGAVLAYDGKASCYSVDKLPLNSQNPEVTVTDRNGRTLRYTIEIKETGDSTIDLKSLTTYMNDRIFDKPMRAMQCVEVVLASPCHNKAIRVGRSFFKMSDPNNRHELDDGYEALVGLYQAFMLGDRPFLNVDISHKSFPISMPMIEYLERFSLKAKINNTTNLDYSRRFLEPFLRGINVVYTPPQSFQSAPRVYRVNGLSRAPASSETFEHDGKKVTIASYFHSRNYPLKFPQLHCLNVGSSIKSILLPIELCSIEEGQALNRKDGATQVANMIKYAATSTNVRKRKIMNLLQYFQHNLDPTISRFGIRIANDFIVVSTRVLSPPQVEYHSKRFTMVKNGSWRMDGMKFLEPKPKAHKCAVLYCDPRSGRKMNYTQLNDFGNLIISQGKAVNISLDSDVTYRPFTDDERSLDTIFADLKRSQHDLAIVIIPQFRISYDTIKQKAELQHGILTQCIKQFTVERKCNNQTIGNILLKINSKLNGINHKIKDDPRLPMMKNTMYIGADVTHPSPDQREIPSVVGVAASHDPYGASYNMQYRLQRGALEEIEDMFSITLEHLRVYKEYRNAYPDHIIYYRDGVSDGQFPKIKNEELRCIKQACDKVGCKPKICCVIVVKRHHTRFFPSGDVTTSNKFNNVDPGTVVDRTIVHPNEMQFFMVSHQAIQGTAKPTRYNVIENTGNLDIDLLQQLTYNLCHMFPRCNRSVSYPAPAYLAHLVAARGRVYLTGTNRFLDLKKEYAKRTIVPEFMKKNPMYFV
Described as above.

The target in assay [3] is Flag full-length TDRD3 (Drosophila). Briefly: co-IP; Flag IP-Western of different Flag-TDRD3 constructs and their interacting partners from transfected S2 cells.

Take “Drosophila TDRD3 (Tudor domain-containing 3) (from UniProt Q9VUH8)”: the binding result in assay [1] and in assay [2] was “binds” each time.

B1: Argonaute 2 (AGO2) (protein, UniProt Q9VUQ5 1-1214)
chain: T2 sequence
Regarding B1, in assay [3], the binding result was “binds”.
